# Patent US11000555B2, “Method for preparing a limax compound and therapeutic use thereof” (GUANGXI JIUFU BIOTECHNOLOGY CO., LTD, priority 2017, dated 2021)
# Marks after values point to notes of the source that are not given here.
# How the values were obtained:
# mice [1] = assay: Physical dependence test: induced withdrawal test for the mice; details: sc morphine hydrochloride
# Method: The daily doses were 25, 50, 75, 100, 125, 150 mg/kg according to the dose increasing principle, increased day by day, reached 150 mg/kg on day 6 which was adopted the same on day 7. The compound group was administered (ig) twice daily (8:00 am, 8:00 pm) at daily doses of 0.6, 1.2, 1.8, 2.4, 3.0, 3.6 g/kg. The dose increased every day from 0.6 g/kg to 3.6 g/kg on day 6 which was adopted the same on day 7. The negative control group was given (ig) the same volume of vegetable oil every day at the same time and for the same times as the compound group. On day 7, naloxone (8 mg/kg, ip) was given to each group of mice to induce withdrawal. The jump reaction within 30 min and weight change one hour before and after inducement were observed. Weight loss value=weight before inducement−weight after inducement.
# mice [2] = assay: Psychological dependence test: conditioned place preference test of mice
# Source text: A conditioned place preference box was composed of black and white cuboids (30 cm×15 cm×15 cm), a movable partition plate is arranged in the middle of the box body to divide the box into two cuboids of the same volume, and the rat and mice can freely move from one cuboid to another when the partition plate is removed. Inner surfaces of one cuboid of the box body except the glass panel is painted black, the bottom plate is made to be a rough surface by using a soft blanket, the other cuboid of the box body except the glass surface is painted white, the bottom plate is made to be a smooth surface, and the whole experimental box has visual and tactile cues.
# Mice were tested for natural preference one day prior to dosing to eliminate mice with significant preference on one side of the box and to exclude the effects of unconditioned place preference on the experimental results.
# Each group of animals was administered twice daily at an interval of 8 hours (8:00, 16:00). […] The partition plate of the preferred cuboid was removed, the mice were placed in the middle of the box one by one and observed for 15 minutes, and the duration of each of the mice staying in each cuboid was recorded on the basis of the positions of their heads.
smiles,measurement,setting,value
"CN1CC[C@]23c4c5ccc(O)c4O[C@H]2[C@@H](O)C=C[C@H]3[C@H]1C5.Cl [Morphine, Morphine hydrochloride]",Behaviour of mice after administration,mice [1],all the mice showed tail erecting reaction and excitatory movement
same,Duration of mice staying in companion box,"mice [2]; After administration, morphine 9 mg/kg sc, 6 days training, 15 min observation",578.6 ± 136.83**^Δ s
same,Duration of mice staying in companion box,"mice [2]; Before administration, Morphine control group",362.5 ± 67.51 s
